Measurements reported in PubChem BioAssay AID1259308 (NCATS, 2017).

- Assay: 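Knock-downs that increase output of a recombinant reporter protein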 (primary screen)
- Cell system: human HEK293 embryonic kidney cells stably expressing firefly luciferase (HEK-CMV-Luc2-Hygro)
- Reagent: single siRNA against human genes, 0.8 pmol siRNA per well
- Timing: 72 h
- Measurement: 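Luciferase light (ONE-Glo) measured on one replicate plate set and viability (CellTiter-Glo) on the other, scaled to a negative control siRNA, with robust z-scores and luciferase per cell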
- Scale: total luciferase, z-score and total luciferase, % of control: higher = more reporter protein produced; luciferase per cell, z-score: higher = more reporter output per viable cell; viable cells, % of control: higher = more viable cells
- Hit rule: 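An siRNA counts as active if its total luciferase robust z-score exceeds 3; genes with two or more such siRNAs out of three were retested with fresh siRNAs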
- Calls: active = raised luciferase; inactive = no rise
The deposit covers about 59,000 reagents; shown is an unselected part. In the full data, about 1,510 (2.6%) got an active call. 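Calls use total luciferase alone and ignore viability, so some active siRNAs may act by altering cell number.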 Entries without a mark were called inactive. The numbers tell different reagents against one gene apart.

gene,reagent no.,"total luciferase, z-score","total luciferase, % of control","luciferase per cell, z-score","viable cells, % of control"
ASPDH (GeneID 554235),1,-0.085,80.2,-0.53,103
ASPDH (GeneID 554235),2,0.149,84.9,0.662,79.7
ASPDH (GeneID 554235),3,0.706,95.9,0.284,99.5
WDR54 (GeneID 84058),1,-1.37,54.6,-1.28,85.5
WDR54 (GeneID 84058),2,0.0412,82.7,-0.359,102
WDR54 (GeneID 84058),3,0.729,96.4,-0.153,112
FBLN7 (GeneID 129804),1,-0.69,68.2,-0.517,87.3
FBLN7 (GeneID 129804),2,1.81,118,2.79,63.1
FBLN7 (GeneID 129804),3,0.114,84.1,-0.419,105
INO80C (GeneID 125476),1,-1.1,60.1,-0.856,84.1
INO80C (GeneID 125476),2,-0.338,75.2,-0.599,98.3
INO80C (GeneID 125476),3,-0.116,79.6,-0.412,99.1
COPS7A (GeneID 50813),1,0.524,92.3,0.684,86.1
COPS7A (GeneID 50813),2,1.97,121,0.858,108
COPS7A (GeneID 50813),3,0.509,92,-0.00248,103
ATP10D (GeneID 57205),1,-0.0725,80.4,0.27,83.7
ATP10D (GeneID 57205),2,-0.537,71.2,-0.714,96
ATP10D (GeneID 57205),3,-0.0345,81.2,-0.586,106
LPIN2 (GeneID 9663),1,0.135,84.6,0.138,91.1
LPIN2 (GeneID 9663),2,-0.625,69.5,-0.988,101
LPIN2 (GeneID 9663),3,2.81,138,1.02,118
TMEM72 (GeneID 643236),1,0.545,92.7,0.426,92.6
TMEM72 (GeneID 643236),2,0.0477,82.8,0.621,78.6
TMEM72 (GeneID 643236),3,-2.51,31.9,0.515,31.1
PCDH8 (GeneID 5100),1,2.06,123,2.08,79.4
PCDH8 (GeneID 5100),2,1.24,107,0.769,97.3
PCDH8 (GeneID 5100),3,-0.894,64.1,-0.885,90.4
AGTR2 (GeneID 186),1,0.211,86.1,-0.0293,96.9
AGTR2 (GeneID 186),2,0.93,100,0.739,92.3
AGTR2 (GeneID 186),3,0.00975,82.1,-0.246,97.9

A stretch of the results above:
gene,reagent no.,"total luciferase, z-score","total luciferase, % of control","luciferase per cell, z-score","viable cells, % of control"
TMEM72 (GeneID 643236),2,0.0477,82.8,0.621,78.6
TMEM72 (GeneID 643236),3,-2.51,31.9,0.515,31.1
PCDH8 (GeneID 5100),1,2.06,123,2.08,79.4
PCDH8 (GeneID 5100),2,1.24,107,0.769,97.3
PCDH8 (GeneID 5100),3,-0.894,64.1,-0.885,90.4
AGTR2 (GeneID 186),1,0.211,86.1,-0.0293,96.9

More results follow.
gene,reagent no.,"total luciferase, z-score","total luciferase, % of control","luciferase per cell, z-score","viable cells, % of control"
TSLIG3A (GeneID 25940),1,0.25,86.9,-0.471,110
TSLIG3A (GeneID 25940),2,1.51,112,0.873,99.5
TSLIG3A (GeneID 25940),3,-1.24,57.2,-0.524,73.4
SERPINB1 (GeneID 1992),1,0.406,90,0.674,84.2
SERPINB1 (GeneID 1992),2,-0.108,79.7,-0.268,95.6
SERPINB1 (GeneID 1992),3,0.519,92.2,0.174,98.4
CYP4B1 (GeneID 1580),1,-1.58,50.4,-1.59,85.6
CYP4B1 (GeneID 1580),2,-0.212,77.7,-0.177,90.9
CYP4B1 (GeneID 1580),3,-1.15,58.9,-1.3,92.8
ERCC6 (GeneID 2074),1,0.985,101,0.878,90
ERCC6 (GeneID 2074),2,0.504,91.9,-0.203,108
ERCC6 (GeneID 2074),3,0.94,101,0.211,106
CHIC1 (GeneID 53344),1,1.71,116,0.696,108
CHIC1 (GeneID 53344),2,0.376,89.4,0.462,88.4
CHIC1 (GeneID 53344),3,1.23,106,0.62,101
PHIP (GeneID 55023),1,-1.71,47.8,-1.25,74.4
PHIP (GeneID 55023),2,-0.0952,80,-0.327,97.4
PHIP (GeneID 55023),3,0.992,102,0.42,102
NDUFC1 (GeneID 4717),1,-0.911,63.8,-1.01,92.9
NDUFC1 (GeneID 4717),2,1.64,114,1.09,96.1
NDUFC1 (GeneID 4717),3,-0.202,77.9,0.0483,85.9
ZNF549 (GeneID 256051),1,0.731,96.4,0.807,87.1
ZNF549 (GeneID 256051),2,-0.15,78.9,0.13,85.2
ZNF549 (GeneID 256051),3,4.87 (active),179,3.18,86.4
KCND2 (GeneID 3751),1,0.825,98.3,0.672,92
KCND2 (GeneID 3751),2,1.39,109,0.713,101
KCND2 (GeneID 3751),3,0.384,89.5,0.676,83.7
